Results as given in publication PMC7862700.
This is a selection; strong and weak results do not stand in their true shares. At the low end of the ranking the order means little.

Chains of the proteins cited; added tags and fusions are not shown. Lines headed by an entry give the natural chain unless they say otherwise; changes in a name come on top.
UniProt Q01892: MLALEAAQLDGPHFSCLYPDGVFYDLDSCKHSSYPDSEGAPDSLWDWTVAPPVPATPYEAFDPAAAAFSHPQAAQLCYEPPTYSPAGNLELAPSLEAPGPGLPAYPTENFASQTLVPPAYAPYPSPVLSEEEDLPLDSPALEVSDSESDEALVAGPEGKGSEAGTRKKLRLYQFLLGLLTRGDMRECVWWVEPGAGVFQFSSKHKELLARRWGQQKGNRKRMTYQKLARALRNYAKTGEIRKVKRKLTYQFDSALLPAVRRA
UniProt P41161: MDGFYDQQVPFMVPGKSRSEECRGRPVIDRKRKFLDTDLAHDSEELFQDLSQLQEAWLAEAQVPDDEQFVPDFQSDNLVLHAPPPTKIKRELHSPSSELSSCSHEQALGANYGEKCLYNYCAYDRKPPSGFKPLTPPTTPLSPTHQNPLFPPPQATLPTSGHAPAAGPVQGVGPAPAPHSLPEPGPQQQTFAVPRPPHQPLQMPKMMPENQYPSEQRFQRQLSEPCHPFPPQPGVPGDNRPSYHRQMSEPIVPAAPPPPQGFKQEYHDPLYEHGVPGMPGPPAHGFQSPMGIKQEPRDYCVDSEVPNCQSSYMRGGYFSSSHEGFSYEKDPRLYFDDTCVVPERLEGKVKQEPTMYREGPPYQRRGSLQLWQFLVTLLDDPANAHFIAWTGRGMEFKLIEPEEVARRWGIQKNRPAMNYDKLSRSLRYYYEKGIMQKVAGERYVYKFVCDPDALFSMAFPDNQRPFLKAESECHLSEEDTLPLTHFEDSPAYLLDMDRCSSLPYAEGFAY
UniProt Q99607: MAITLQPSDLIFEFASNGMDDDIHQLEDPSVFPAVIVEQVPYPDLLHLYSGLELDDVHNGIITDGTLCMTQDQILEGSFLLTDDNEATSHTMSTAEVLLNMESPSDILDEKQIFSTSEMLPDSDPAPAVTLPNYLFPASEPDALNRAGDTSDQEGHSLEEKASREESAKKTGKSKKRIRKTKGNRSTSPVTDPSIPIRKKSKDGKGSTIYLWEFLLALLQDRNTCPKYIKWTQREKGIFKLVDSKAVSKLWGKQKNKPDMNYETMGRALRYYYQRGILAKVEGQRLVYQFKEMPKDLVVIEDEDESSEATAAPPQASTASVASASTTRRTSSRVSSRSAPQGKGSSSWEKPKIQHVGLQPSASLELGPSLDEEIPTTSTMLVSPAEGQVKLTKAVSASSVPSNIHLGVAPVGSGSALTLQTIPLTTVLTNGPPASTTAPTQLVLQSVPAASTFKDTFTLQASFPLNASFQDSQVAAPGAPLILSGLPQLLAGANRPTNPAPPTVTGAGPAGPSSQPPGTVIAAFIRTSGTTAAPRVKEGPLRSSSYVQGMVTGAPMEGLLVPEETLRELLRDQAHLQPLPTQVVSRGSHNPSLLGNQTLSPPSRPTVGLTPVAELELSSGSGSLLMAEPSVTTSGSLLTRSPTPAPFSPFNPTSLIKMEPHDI

Assays:
Assay in all cases: DAPPL (digital affinity profiling via proximity ligation, sequencing)
Conditions in all cases: 10 mM Tris-HCl pH 7.5, 50 mM NaCl, 1 mM DTT, 4% glycerol, room temperature, 30 min; GST-TFs on glutathione beads, 16-mer random dsDNA library, 0.1% …; high values mean tight binding; double strand, one strand shown; scale: fold enrichment (6-mer frequency, TF over GST control)
[1] = molecular target: T1, FLI1 (UniProt Q01543)
T1 sequence: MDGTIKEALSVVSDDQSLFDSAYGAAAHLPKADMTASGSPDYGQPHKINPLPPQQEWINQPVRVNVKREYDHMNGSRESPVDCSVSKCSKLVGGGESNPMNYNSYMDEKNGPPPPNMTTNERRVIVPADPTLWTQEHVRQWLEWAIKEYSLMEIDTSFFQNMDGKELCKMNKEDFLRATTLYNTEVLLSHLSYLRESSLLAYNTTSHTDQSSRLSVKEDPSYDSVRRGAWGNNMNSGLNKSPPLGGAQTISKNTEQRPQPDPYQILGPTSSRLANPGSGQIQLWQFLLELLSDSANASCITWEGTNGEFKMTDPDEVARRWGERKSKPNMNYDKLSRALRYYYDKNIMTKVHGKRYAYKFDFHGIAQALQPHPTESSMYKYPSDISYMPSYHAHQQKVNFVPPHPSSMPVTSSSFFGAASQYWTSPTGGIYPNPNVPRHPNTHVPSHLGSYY

[2] = molecular target: T2, EHF (UniProt Q9NZC4)
T2 sequence: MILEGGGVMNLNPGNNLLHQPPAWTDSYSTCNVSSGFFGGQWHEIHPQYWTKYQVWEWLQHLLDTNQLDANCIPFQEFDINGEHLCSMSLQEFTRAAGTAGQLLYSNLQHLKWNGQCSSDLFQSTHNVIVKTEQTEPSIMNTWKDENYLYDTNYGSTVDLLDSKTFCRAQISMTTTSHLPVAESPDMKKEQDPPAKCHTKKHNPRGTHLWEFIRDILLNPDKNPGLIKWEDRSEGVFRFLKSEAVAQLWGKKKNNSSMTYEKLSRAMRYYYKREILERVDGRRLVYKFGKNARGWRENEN

[3] = molecular target: SPIB (UniProt Q01892)
[4] = molecular target: ETV5 (UniProt P41161)
[5] = molecular target: ELF4 (UniProt Q99607)
[6] = molecular target: T3, ETV2 (UniProt O00321)
T3 sequence: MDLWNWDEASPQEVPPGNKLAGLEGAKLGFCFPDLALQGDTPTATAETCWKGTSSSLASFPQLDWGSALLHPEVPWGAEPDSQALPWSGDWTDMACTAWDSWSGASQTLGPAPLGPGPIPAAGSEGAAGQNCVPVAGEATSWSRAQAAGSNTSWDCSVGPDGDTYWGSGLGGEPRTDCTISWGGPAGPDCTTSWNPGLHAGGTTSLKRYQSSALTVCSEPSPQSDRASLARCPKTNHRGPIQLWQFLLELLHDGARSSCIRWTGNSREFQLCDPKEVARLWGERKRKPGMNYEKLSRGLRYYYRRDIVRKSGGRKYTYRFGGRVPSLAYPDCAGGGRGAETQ

[7] = molecular target: T4, ETV3L (UniProt Q6ZN32)
T4 sequence: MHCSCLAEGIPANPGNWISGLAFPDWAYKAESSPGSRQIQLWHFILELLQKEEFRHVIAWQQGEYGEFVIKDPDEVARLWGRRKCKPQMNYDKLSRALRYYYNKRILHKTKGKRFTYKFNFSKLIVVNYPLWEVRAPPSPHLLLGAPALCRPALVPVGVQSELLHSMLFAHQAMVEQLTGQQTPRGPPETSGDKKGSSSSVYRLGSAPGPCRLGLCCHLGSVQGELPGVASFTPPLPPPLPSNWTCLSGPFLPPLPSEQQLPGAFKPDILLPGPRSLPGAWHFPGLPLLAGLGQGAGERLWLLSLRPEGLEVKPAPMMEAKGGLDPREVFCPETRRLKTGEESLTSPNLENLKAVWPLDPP

Sequence | binding signal [1] | binding signal [2] | binding signal [3] | binding signal [4] | binding signal [5] | binding signal [6] | binding signal [7]
TGAGAA | 0.744 | 0.756 | 0.732 | 0.717 | 0.737 | 0.717 | 0.735
TGAGGC | 0.435 | 0.429 | 0.439 | 0.499 | 0.433 | 0.481 | 0.461
GAGTTG | 0.511 | 0.454 | 0.533 | 0.492 | 0.539 | 0.517 | 0.525
GTGATA | 0.718 | 0.656 | 0.713 | 0.669 | 0.69 | 0.587 | 0.695
TAGCCG | 0.872 | 0.845 | 0.883 | 0.857 | 0.838 | 0.968 | 0.891
GGACGG | 0.511 | 0.529 | 0.509 | 0.554 | 0.443 | 0.524 | 0.527
CAGCCA | 0.784 | 0.869 | 0.866 | 0.787 | 0.843 | 0.902 | 0.845
GACAGG | 0.552 | 0.574 | 0.556 | 0.55 | 0.593 | 0.494 | 0.571
GGCCAT | 0.783 | 0.849 | 0.859 | 0.866 | 0.876 | 0.845 | 0.916
TGACGT | 0.933 | 0.887 | 0.957 | 0.881 | 0.923 | 0.879 | 0.918
CGAGAC | 0.542 | 0.584 | 0.553 | 0.542 | 0.561 | 0.567 | 0.528
ACGGTG | 0.54 | 0.504 | 0.5 | 0.527 | 0.575 | 0.531 | 0.563
GGTGTA | 0.819 | 0.884 | 0.801 | 0.797 | 0.867 | 0.89 | 0.764
AGCCCG | 0.956 | 0.822 | 0.869 | 0.872 | 0.873 | 0.754 | 0.825
AGGAGA | 0.209 | 0.199 | 0.203 | 0.207 | 0.211 | 0.208 | 0.229
ATCAGT | 0.834 | 0.807 | 0.851 | 0.84 | 0.824 | 0.804 | 0.85
GTGTGG | 0.652 | 0.594 | 0.745 | 0.628 | 0.583 | 0.62 | 0.632
GCAGAC | 0.697 | 0.723 | 0.723 | 0.701 | 0.695 | 0.754 | 0.644
CGTGCA | 0.66 | 0.736 | 0.604 | 0.708 | 0.712 | 0.785 | 0.663
GGTAGA | 0.686 | 0.69 | 0.627 | 0.639 | 0.624 | 0.62 | 0.709

Sequence | binding signal [1] | binding signal [2] | binding signal [3] | binding signal [4] | binding signal [5] | binding signal [6] | binding signal [7]
GAACCG | 0.717 | 0.695 | 0.744 | 0.745 | 0.658 | 0.739 | 0.73
GTGTGA | 0.604 | 0.608 | 0.592 | 0.581 | 0.614 | 0.596 | 0.569
CAGCGA | 0.881 | 0.86 | 0.969 | 0.936 | 0.838 | 0.984 | 0.897
GAGTCT | 0.417 | 0.433 | 0.356 | 0.376 | 0.393 | 0.396 | 0.433
AAGGAG | 0.343 | 0.373 | 0.337 | 0.359 | 0.32 | 0.296 | 0.341
AGTGAG | 0.261 | 0.269 | 0.246 | 0.253 | 0.269 | 0.241 | 0.265
TCGGGG | 0.429 | 0.389 | 0.4 | 0.388 | 0.397 | 0.401 | 0.399
CCGGGG | 0.754 | 0.746 | 0.783 | 0.814 | 0.723 | 0.731 | 0.763
CGGGAC | 0.548 | 0.574 | 0.561 | 0.534 | 0.514 | 0.456 | 0.511
GAGACG | 0.331 | 0.353 | 0.305 | 0.325 | 0.319 | 0.363 | 0.312
GGACCC | 0.871 | 0.836 | 0.799 | 0.889 | 0.813 | 0.888 | 0.837
GTCTGA | 0.78 | 0.754 | 0.784 | 0.729 | 0.79 | 0.878 | 0.72
CAGAGT | 0.649 | 0.629 | 0.574 | 0.671 | 0.629 | 0.593 | 0.663
GCTGGG | 0.804 | 0.842 | 0.829 | 0.796 | 0.788 | 0.76 | 0.915
GGGACG | 0.514 | 0.477 | 0.512 | 0.481 | 0.462 | 0.476 | 0.415
TGCAGT | 0.819 | 0.786 | 0.778 | 0.804 | 0.847 | 0.913 | 0.88
AGACCC | 0.71 | 0.7 | 0.716 | 0.691 | 0.723 | 0.758 | 0.685
GGGAGA | 0.318 | 0.329 | 0.31 | 0.346 | 0.312 | 0.335 | 0.3
AGGGAC | 0.757 | 0.708 | 0.751 | 0.703 | 0.781 | 0.749 | 0.683
CTGGGA | 0.78 | 0.772 | 0.836 | 0.825 | 0.81 | 1.01 | 0.809

Sequence | binding signal [1] | binding signal [2] | binding signal [3] | binding signal [4] | binding signal [5] | binding signal [6] | binding signal [7]
TCAGTC | 0.671 | 0.58 | 0.593 | 0.58 | 0.65 | 0.487 | 0.606
CCAGGT | 0.725 | 0.677 | 0.833 | 0.735 | 0.78 | 0.647 | 0.751
GGCGGG | 0.328 | 0.332 | 0.31 | 0.325 | 0.335 | 0.322 | 0.322
GACGCT | 0.784 | 0.738 | 0.83 | 0.833 | 0.83 | 0.827 | 0.727
TACAGT | 0.928 | 0.882 | 0.906 | 0.871 | 0.922 | 0.819 | 0.894
GGGCGC | 0.616 | 0.623 | 0.6 | 0.617 | 0.647 | 0.642 | 0.581
GTAGTC | 0.697 | 0.711 | 0.694 | 0.641 | 0.7 | 0.706 | 0.647
GGAGAT | 0.277 | 0.303 | 0.33 | 0.328 | 0.29 | 0.321 | 0.284
CAGTGG | 0.531 | 0.48 | 0.443 | 0.492 | 0.481 | 0.47 | 0.46
GTGAGG | 0.263 | 0.24 | 0.241 | 0.247 | 0.241 | 0.258 | 0.253
GGCCGG | 0.543 | 0.585 | 0.554 | 0.614 | 0.544 | 0.533 | 0.512
CGGGGC | 0.604 | 0.542 | 0.586 | 0.62 | 0.591 | 0.636 | 0.599
GGTGCT | 0.907 | 0.952 | 0.833 | 0.942 | 0.88 | 0.911 | 0.867
GACTAA | 0.926 | 0.903 | 0.9 | 0.88 | 0.919 | 0.959 | 0.952
GTACCG | 0.78 | 0.699 | 0.73 | 0.748 | 0.737 | 0.71 | 0.766
CCGTGC | 0.55 | 0.554 | 0.579 | 0.646 | 0.588 | 0.607 | 0.649
CAGCTG | 0.923 | 0.959 | 0.891 | 0.781 | 0.902 | 0.919 | 0.963
GGCAGA | 0.644 | 0.646 | 0.602 | 0.651 | 0.64 | 0.779 | 0.639
CAGTGA | 0.358 | 0.351 | 0.345 | 0.351 | 0.371 | 0.302 | 0.378

As entered above:
Entry of GGAGAT under binding signal [5]: 0.29
Entry of GTACCG under binding signal [2]: 0.699

Looked up one by one from the entries so far, 2 records:
Sequence | binding signal [1] | binding signal [2] | binding signal [3] | binding signal [4] | binding signal [5] | binding signal [6] | binding signal [7]
GGACGG | 0.511 | 0.529 | 0.509 | 0.554 | 0.443 | 0.524 | 0.527
GACTAA | 0.926 | 0.903 | 0.9 | 0.88 | 0.919 | 0.959 | 0.952
